Results on 9 molecules are retold here after patent US20130288979A1 (CENTRE NATIONAL DE LA RECHERCHE SCIENTIFIQUE CNRS, published 2013).

Sequences of proteins named here, by UniProt entry; tags and fusion partners are left off. Residues count along the entry.
UniProt P25445, residues 191-335: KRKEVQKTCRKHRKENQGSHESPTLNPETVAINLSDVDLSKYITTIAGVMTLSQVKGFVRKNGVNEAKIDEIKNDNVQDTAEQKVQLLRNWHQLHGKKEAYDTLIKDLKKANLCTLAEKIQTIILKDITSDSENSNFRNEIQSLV

Test [1] concerns the target His-tagged intracellular region of Fas receptor (UniProt P25445). In words: SPOT peptide array, enzyme-linked blot with His-tagged Fas intracellular region; one of the three brightest spots.
Test [2] has the same target. The experiment in a line: SPOT pepscan of FADD (15mers, shift 3) on membrane, probed with His-tagged Fas intracellular region 10 µg/ml, anti-His(mouse)/anti-mouse-HRP, enzyme-linked blot.
Test [3] shares this target. In words: SPOT peptide array, enzyme-linked blot with His-tagged Fas intracellular region at 10 µg/ml; one of the four brightest spots.
The target is the same in test [4]. In words: SPOT pepscan of DAXX (15mers, shift 3) on membrane, probed with His-tagged Fas intracellular region 10 µg/ml, anti-His(mouse)/anti-mouse-HRP, enzyme-linked blot.
Test [5] has the same target. The experiment in a line: SPOT length analysis of DAXXp-209 (shortened at the N-terminus, the C-terminus and both), probed with His-tagged Fas intracellular region 10 µg/ml, anti-His(mouse)/anti-mouse-HRP, enzyme-linked blot.
For test [6] the target is unchanged. The experiment in a line: SPOT length analysis of FADDp-11 (shortened at the C-terminus, the N-terminus and both), probed with His-tagged Fas intracellular region 10 µg/ml, anti-His(mouse)/anti-mouse-HRP, enzyme-linked blot.
Test [7] shares this target. The experiment in a line: SPOT peptide array, enzyme-linked blot with His-tagged Fas intracellular region at 10 µg/ml.
Test [8] has the same target. In words: SPOT length analysis of DAXXp-211 (shortened at the N-terminus, the C-terminus and both), probed with His-tagged Fas intracellular region 10 µg/ml, anti-His(mouse)/anti-mouse-HRP, enzyme-linked blot.
Test [9] has the same target. In words: SPOT length analysis, enzyme-linked blot with His-tagged Fas intracellular region.
Test [10] shares this target. The experiment in a line: SPOT length analysis, enzyme-linked blot with His-tagged Fas intracellular region at 10 µg/ml.

No constants are given. Whether binding was seen depends on the method and setting. Some binding calls cover weakened binding; strength is not graded here.

Regarding LGRVGKRKLERVQSG [FADD pepscan spot no. 10], the binding entry in [1] and in test [2] was “binds” in each case.

Consider SGPPCKKSRKEKKQT [DAXXp-209], for which the binding result in test [3], in test [4] and in test [5] was “binds” in each case.

On to RKLERVQSGLDLFSM [FADD pepscan spot no. 12], for which the binding entry in test [1] and in test [2] was “binds” in each case.

As for KEKKQTGSGPLGNSY [DAXXp-212], the binding entry in test [3] and in test [4] was “binds” each time.

Consider KRKLERVQSGLDL [FADDp-11 (spot no. 6)], for which the binding entry in [6] was “binds”.

In the case of PCKKSRKEKKQTGSG [DAXXp-210], the binding entry in test [3] and in test [4] was “binds” throughout.

In the case of KSRKEKKQTGSGPLG [DAXXp-211], the binding result in test [7], in test [4] and in [8] was “binds” each time.

Turning to KRKLERVQS [FADDp], the binding entry in test [9], in test [10] and in [6] was “binds” throughout.

As for VGKRKLERVQSGLDL [FADDp15], the binding result in [7] and in test [2] was “binds” each time.
